In the supplement of paper PMC10849652:
This is one part of the list.

Protein sequences, listed by entry. Tags and fused reporters are not part of them. Lines headed by an entry give the natural chain unless they say otherwise; changes in a name come on top.
UniProt P61960, whole entry, looked up: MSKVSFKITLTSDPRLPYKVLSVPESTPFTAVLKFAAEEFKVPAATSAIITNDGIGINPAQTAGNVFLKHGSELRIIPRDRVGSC
UniProt Q9BV40: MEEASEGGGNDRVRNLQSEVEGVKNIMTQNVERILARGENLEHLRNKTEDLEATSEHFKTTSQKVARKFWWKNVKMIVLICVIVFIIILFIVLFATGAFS
UniProt Q9UPT9: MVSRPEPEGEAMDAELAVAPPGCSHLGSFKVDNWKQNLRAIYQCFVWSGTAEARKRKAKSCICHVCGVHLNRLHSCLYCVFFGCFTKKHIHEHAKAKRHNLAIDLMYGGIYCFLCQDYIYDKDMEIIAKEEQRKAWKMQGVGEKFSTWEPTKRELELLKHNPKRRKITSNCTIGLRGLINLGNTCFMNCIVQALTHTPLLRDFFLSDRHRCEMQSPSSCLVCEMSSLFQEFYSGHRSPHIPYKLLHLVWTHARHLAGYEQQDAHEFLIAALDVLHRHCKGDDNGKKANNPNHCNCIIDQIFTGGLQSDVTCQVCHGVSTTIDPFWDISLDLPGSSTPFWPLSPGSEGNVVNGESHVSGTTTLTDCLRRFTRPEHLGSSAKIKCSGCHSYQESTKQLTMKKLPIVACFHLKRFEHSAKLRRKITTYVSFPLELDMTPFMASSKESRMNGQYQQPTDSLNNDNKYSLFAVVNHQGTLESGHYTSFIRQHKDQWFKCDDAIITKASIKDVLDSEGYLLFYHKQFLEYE
UniProt Q9NUQ7: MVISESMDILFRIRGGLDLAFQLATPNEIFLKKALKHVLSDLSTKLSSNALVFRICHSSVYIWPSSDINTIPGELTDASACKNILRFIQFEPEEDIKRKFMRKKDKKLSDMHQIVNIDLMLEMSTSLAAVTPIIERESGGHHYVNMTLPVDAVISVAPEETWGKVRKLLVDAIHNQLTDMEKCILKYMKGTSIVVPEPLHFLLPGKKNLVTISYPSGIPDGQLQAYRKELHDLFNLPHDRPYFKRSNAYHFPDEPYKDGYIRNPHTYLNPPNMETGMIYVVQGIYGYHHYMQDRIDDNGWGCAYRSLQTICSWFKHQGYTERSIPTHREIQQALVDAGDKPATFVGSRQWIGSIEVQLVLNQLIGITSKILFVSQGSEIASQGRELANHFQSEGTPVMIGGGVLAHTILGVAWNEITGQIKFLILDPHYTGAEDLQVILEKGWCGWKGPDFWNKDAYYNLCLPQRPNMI
UniProt O75379: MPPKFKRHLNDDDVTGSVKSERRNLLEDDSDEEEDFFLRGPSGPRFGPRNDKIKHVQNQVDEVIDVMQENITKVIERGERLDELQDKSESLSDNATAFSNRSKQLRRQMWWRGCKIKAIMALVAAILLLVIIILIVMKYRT
UniProt Q9Y6I4: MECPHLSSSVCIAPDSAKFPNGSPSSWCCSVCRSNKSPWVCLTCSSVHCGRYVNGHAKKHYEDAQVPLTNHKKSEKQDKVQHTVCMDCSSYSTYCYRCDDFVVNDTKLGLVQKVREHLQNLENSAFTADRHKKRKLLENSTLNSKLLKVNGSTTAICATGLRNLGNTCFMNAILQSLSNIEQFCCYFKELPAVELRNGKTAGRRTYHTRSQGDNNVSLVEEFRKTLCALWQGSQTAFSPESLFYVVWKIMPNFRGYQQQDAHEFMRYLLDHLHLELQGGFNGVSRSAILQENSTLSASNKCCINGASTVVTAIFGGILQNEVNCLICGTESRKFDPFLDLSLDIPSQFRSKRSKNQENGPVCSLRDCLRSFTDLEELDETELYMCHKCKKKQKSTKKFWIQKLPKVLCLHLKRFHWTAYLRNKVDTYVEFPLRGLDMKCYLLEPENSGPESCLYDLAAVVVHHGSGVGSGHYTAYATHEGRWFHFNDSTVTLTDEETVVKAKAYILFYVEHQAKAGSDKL
UniProt Q9UHP3: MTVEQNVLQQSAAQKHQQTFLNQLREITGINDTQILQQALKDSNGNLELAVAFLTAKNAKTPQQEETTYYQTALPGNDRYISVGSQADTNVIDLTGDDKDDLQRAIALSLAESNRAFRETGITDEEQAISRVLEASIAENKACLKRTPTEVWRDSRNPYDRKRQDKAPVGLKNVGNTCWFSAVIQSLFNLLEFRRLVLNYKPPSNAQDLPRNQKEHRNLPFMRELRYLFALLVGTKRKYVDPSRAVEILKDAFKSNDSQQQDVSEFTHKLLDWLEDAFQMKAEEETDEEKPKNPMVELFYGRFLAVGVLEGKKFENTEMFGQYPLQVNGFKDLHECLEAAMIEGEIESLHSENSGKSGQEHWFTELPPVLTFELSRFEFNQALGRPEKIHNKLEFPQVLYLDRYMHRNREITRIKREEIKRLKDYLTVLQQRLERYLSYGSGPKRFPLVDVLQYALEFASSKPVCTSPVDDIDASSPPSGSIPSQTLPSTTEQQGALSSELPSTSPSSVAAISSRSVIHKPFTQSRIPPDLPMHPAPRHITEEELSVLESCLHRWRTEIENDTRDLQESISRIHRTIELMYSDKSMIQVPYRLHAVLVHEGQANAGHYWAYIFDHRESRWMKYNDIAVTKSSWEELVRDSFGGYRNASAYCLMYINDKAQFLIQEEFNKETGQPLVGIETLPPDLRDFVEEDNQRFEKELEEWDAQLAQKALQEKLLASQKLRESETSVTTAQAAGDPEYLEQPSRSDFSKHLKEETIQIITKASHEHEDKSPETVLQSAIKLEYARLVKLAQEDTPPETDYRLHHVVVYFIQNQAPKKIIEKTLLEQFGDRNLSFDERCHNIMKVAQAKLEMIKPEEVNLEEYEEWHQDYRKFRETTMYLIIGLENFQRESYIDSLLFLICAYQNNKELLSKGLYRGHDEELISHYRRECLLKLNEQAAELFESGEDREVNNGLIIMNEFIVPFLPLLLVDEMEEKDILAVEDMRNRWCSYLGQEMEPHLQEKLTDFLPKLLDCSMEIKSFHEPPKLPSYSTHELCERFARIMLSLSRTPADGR
UniProt P15374: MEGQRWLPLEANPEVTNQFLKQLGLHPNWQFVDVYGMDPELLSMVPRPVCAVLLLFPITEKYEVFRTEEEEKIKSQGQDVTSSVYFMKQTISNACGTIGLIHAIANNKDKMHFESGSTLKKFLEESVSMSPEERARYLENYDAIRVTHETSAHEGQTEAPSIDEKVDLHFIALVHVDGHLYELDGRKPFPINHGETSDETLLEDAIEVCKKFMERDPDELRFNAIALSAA
UniProt Q8TAA9: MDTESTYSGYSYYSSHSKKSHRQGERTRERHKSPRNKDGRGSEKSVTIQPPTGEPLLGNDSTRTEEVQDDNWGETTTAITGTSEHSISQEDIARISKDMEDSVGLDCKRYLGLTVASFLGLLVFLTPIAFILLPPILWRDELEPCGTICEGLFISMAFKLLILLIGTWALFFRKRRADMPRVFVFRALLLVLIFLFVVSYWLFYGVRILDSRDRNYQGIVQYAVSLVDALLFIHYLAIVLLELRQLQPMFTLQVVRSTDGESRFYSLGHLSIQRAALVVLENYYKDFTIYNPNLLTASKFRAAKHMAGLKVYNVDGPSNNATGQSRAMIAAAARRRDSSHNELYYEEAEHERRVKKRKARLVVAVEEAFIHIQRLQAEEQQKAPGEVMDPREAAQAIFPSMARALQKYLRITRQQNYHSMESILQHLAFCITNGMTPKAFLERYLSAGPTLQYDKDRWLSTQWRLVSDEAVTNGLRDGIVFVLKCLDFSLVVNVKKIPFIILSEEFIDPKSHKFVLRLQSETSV
UniProt A0JNW5: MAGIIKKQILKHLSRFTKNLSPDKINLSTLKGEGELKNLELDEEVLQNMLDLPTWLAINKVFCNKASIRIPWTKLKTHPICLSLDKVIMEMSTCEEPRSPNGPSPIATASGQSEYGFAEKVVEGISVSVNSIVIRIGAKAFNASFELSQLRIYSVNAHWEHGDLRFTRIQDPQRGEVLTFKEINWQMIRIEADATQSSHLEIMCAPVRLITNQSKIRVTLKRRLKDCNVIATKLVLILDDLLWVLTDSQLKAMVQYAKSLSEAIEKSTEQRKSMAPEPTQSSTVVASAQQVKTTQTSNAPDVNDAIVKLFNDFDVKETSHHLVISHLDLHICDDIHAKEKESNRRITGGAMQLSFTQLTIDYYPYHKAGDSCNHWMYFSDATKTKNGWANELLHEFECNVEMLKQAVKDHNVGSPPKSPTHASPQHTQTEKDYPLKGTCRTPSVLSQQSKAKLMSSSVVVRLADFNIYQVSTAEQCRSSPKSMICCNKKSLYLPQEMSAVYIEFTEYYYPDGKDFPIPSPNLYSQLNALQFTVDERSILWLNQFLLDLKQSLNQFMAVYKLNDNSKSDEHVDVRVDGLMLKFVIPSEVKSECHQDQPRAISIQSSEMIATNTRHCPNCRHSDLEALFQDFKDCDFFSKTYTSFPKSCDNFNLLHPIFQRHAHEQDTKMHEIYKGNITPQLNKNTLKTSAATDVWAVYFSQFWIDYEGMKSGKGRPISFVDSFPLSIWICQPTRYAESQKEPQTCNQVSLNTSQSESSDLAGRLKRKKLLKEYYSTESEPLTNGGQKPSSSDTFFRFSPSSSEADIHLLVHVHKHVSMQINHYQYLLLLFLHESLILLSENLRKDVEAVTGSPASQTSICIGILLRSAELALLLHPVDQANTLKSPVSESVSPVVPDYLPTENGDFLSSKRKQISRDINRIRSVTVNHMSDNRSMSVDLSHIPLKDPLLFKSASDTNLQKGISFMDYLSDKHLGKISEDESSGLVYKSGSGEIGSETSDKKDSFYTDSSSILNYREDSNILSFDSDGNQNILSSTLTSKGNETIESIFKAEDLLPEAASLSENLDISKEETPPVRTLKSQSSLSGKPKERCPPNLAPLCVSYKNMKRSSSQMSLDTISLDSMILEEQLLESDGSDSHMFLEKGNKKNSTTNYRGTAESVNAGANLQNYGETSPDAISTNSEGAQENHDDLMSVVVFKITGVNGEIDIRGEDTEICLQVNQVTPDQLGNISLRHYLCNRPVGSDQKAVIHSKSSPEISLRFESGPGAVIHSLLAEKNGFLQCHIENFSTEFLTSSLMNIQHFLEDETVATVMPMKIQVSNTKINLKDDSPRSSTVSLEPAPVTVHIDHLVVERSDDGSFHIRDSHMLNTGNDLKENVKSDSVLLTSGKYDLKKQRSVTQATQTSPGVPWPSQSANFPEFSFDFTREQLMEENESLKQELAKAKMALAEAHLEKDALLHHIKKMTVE
UniProt Q8NBZ7: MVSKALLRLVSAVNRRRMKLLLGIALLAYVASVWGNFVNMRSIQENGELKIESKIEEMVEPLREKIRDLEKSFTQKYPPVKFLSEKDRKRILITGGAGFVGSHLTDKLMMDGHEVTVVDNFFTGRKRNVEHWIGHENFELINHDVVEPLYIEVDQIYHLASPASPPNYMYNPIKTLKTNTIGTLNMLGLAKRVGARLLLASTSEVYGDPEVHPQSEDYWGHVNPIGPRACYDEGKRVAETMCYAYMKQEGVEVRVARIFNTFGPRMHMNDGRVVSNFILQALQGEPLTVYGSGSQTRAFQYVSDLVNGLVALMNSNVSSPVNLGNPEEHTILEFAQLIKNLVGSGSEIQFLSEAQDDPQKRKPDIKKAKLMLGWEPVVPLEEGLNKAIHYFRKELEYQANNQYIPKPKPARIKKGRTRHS
UniProt Q9UDW1: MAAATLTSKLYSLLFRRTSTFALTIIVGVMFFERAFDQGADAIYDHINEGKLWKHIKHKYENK
UniProt Q9NQZ2: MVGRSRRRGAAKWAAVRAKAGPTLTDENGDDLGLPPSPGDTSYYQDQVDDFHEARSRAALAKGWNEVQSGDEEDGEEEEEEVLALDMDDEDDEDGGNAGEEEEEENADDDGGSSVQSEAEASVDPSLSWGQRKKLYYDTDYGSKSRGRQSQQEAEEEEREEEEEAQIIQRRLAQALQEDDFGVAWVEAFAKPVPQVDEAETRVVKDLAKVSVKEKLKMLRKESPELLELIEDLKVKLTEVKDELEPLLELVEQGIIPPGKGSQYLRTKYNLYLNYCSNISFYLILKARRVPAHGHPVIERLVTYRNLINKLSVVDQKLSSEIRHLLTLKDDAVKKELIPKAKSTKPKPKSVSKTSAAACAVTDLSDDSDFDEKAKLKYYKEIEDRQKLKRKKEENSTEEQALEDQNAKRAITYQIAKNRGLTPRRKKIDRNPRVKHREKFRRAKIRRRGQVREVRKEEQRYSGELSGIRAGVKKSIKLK
UniProt Q8TED0: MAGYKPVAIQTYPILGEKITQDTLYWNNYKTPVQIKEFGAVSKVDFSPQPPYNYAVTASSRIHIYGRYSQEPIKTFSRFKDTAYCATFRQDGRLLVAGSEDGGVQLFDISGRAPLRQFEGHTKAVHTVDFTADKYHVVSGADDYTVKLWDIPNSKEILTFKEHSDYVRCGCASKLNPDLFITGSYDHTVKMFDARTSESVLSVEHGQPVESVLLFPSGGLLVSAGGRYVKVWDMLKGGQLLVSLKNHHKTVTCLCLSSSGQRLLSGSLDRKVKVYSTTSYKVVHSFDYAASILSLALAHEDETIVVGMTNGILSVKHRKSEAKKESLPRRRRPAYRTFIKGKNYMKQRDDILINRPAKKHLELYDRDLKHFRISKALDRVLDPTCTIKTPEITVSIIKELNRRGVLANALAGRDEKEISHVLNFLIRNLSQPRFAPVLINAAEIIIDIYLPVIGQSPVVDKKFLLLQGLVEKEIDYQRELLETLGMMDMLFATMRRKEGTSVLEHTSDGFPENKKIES

Experiments:
Test in all cases: log2 fold change, soluble protein after heating vs DMSO (PISA); higher = thermal stabilisation; K562 cells, 10 uM, 30 min; active = over 0.2 and 3.5 SD of the protein, either way, in both replicates (recomputed)
[1] = compound: C1=CC=C(C=C1)[C@H](COC2=CC3=C(C=C2)NC(=O)N3)NC(=O)C4=CC=CN(C4=O)CC5=CC(=C(C=C5)F)F
Procedure, shortened: (§1)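 K562 cells (2×10^6 cells/mL) were treated with 10 μM compound for 30 min, and aliquots were heated for 3 min over 48°C-58°C. Pooled aliquots were extracted in PBS with 0.5% NP-40 at 4°C, and the supernatant after 21,000xg for 90 min was measured by TMTpro 16plex LC-MS/MS with channel sums equalised. Reported thermal stability, relative to control samples and from duplicates, is a log2 fold change.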

[2] = compound: CC1=C(SC2=C1C(=N[C@H](C3=NN=C(N32)C)CC(=O)N)C4=CC=C(C=C4)Cl)C
Procedure, shortened: as §1

[3] = compound: CC1=C2C(=CC=C1)N=C(N(C2=O)C3=CC=CC=C3C)CN4C=NC5=C(N=CN=C54)N
Procedure, shortened: as §1

[4] = compound: Cc1sc2c(c1C)C(c1ccc(Cl)cc1)=N[C@@H](CC(=O)OC(C)(C)C)c1nnc(C)n1-2
Procedure, shortened: as §1

[5] = compound: c1ccc([C@@H]2C[C@H]2NC2CCNCC2)cc1
Procedure, shortened: as §1

Measured: log2 fold change

UQCC2 (UniProt Q9BRT2)
inactive: [1] 0.024 | [2] -0.006 | [3] -0.025 | [4] -0.157 | [5] 0.083

UFM1 (UniProt P61960)
inactive: [1] -0.019 | [2] 0.363 | [3] 0.049 | [4] -0.164 | [5] 0.083

UBR2 (UniProt Q8IWV8)
inactive: [1] -0.16 | [2] 0.04 | [3] 0.009 | [4] -0.014 | [5] -0.28

USP48 isoform 8 (UniProt Q86UV5)
inactive: [1] -0.073 | [2] 0.106 | [3] 0.191 | [4] -0.012 | [5] 0.119

VAMP8 (UniProt Q9BV40)
inactive: [1] 0.032 | [2] 0.035 | [3] -0.041 | [4] 0.008 | [5] 0.006

VAPA isoform 2 (UniProt Q9P0L0)
inactive: [1] -0.002 | [2] -0.001 | [3] 0.001 | [4] -0.019 | [5] 0.035

USP8 (UniProt P40818)
inactive: [1] -0.065 | [2] 0.029 | [3] 0.089 | [4] 0.051 | [5] -0.025

USP22 (UniProt Q9UPT9)
inactive: [1] -0.105 | [2] 0.183 | [3] 0.166 | [4] -0.019 | [5] -0.055

URGCP (UniProt Q8TCY9)
inactive: [1] 0.068 | [2] 0.023 | [3] 0.054 | [4] 0.082 | [5] -0.07

UBL7 (UniProt Q96S82)
inactive: [1] 0.011 | [2] 0.091 | [3] 0.201 | [4] -0.142 | [5] 0.008

UCKL1 (UniProt Q9NWZ5)
inactive: [1] -0.067 | [2] 0.034 | [3] 0.041 | [4] -0.004 | [5] -0.108

UGGT2 (UniProt Q9NYU1)
inactive: [1] 0.064 | [2] 0.054 | [3] 0.085 | [4] -0.036 | [5] 0.035

UTP14A (UniProt Q9BVJ6)
inactive: [1] 0.039 | [2] -0.276 | [3] -0.154 | [4] 0.124 | [5] 0.029

VASP (UniProt P50552)
inactive: [1] -0.138 | [2] 0.047 | [3] 0.128 | [4] 0.051 | [5] -0.087

UFSP2 (UniProt Q9NUQ7)
inactive: [1] 0.005 | [2] 0.064 | [3] 0.057 | [4] 0.017 | [5] -0.019

VAMP4 (UniProt O75379)
inactive: [1] 0.042 | [2] -0.002 | [3] 0.058 | [4] 0.069 | [5] -0.003

UHRF1BP1 (UniProt Q6BDS2)
inactive: [1] -0.01 | [2] 0.109 | [3] 0.006 | [4] -0.001 | [5] -0.007

UBR3 isoform 4 (UniProt Q6ZT12)
inactive: [1] 0.084 | [2] 0.077 | [3] 0.022 | [4] 0.022 | [5] -0.046

UBL4A (UniProt P11441)
inactive: [1] 0.004 | [2] 0.036 | [3] 0.004 | [4] 0.007 | [5] -0.018

USP24 (UniProt Q9UPU5)
inactive: [1] 0.114 | [2] 0.02 | [3] 0.105 | [4] -0.198 | [5] -0.033

USP3 (UniProt Q9Y6I4)
inactive: [1] 0 | [2] 0.143 | [3] 0.036 | [4] -0.061 | [5] -0.025

USP25 isoform 3 (UniProt Q9UHP3)
inactive: [1] -0.02 | [2] 0.024 | [3] 0.068 | [4] -0.007 | [5] -0.007

VARS2, A0A0G2JL52
inactive: [1] -0.006 | [2] 0.006 | [3] 0.044 | [4] -0.004 | [5] -0.015

UFD1 isoform 1 (UniProt Q92890)
inactive: [1] -0.011 | [2] 0.038 | [3] 0.033 | [4] -0.045 | [5] 0.019

USE1 (UniProt Q9NZ43)
inactive: [1] -0.05 | [2] -0.006 | [3] 0.009 | [4] 0.062 | [5] 0.02

USP19 isoform 6 (UniProt O94966)
inactive: [1] -0.008 | [2] 0.07 | [3] 0.037 | [4] -0.05 | [5] 0.002

UPF1 (UniProt Q92900)
inactive: [1] -0.006 | [2] 0.032 | [3] 0.032 | [4] 0.002 | [5] -0.017

UCHL3 (UniProt P15374)
inactive: [1] -0.02 | [2] 0.044 | [3] 0.089 | [4] -0.023 | [5] -0.064

UBFD1 (UniProt O14562)
inactive: [1] -0.009 | [2] 0.051 | [3] 0.04 | [4] -0.037 | [5] -0.065

UCK2 (UniProt Q9BZX2)
inactive: [1] 0.011 | [2] 0.037 | [3] 0.022 | [4] -0.015 | [5] 0.023

VANGL1 (UniProt Q8TAA9)
inactive: [1] -0.012 | [2] 0.036 | [3] 0.049 | [4] 0.017 | [5] 0.136

UHRF1BP1L (UniProt A0JNW5)
inactive: [1] 0.024 | [2] 0.099 | [3] 0.05 | [4] -0.027 | [5] -0.018

UGCG (UniProt Q16739)
inactive: [1] 0.01 | [2] 0.039 | [3] 0.081 | [4] 0.161 | [5] -0.1

UCHL5 (UniProt Q9Y5K5)
inactive: [1] -0.048 | [2] 0.004 | [3] 0.043 | [4] 0.027 | [5] 0.004

UXS1 isoform 2 (UniProt Q8NBZ7)
inactive: [1] -0.009 | [2] -0.058 | [3] -0.026 | [4] -0.046 | [5] -0.006

UCHL5 isoform 3 (UniProt Q9Y5K5)
inactive: [1] 0.021 | [2] 0.232 | [3] -0.123 | [4] 0.069 | [5] 0.167

URI1 (UniProt O94763)
inactive: [1] -0.023 | [2] 0.005 | [3] 0.069 | [4] 0.057 | [5] -0.007

UGT8 (UniProt Q16880)
inactive: [1] 0.014 | [2] -0.008 | [3] -0.068 | [4] 0.298 | [5] -0.054

VCL (UniProt P18206)
inactive: [1] -0.017 | [2] 0.003 | [3] -0.04 | [4] -0.004 | [5] 0.015

UMPS (UniProt P11172)
inactive: [1] 0 | [2] 0.003 | [3] 0.029 | [4] -0.015 | [5] 0.01

UPF3B (UniProt Q9BZI7)
inactive: [1] 0.259 | [2] -0.211 | [3] -0.161 | [4] 0.363 | [5] -0.001

USF2 (UniProt Q15853)
inactive: [1] -0.018 | [2] -0.105 | [3] -0.045 | [4] -0.031 | [5] -0.007

UQCR10 (UniProt Q9UDW1)
inactive: [1] -0.032 | [2] 0.036 | [3] 0.142 | [4] -0.131 | [5] -0.009

VAC14 (UniProt Q08AM6)
inactive: [1] -0.011 | [2] 0.029 | [3] 0.013 | [4] -0.019 | [5] -0.035

USP47 (UniProt Q96K76)
inactive: [1] -0.021 | [2] -0.04 | [3] 0.1 | [4] 0.046 | [5] -0.016

UTP3 (UniProt Q9NQZ2)
inactive: [1] 0.049 | [2] -0.312 | [3] -0.041 | [4] 0.042 | [5] -0.007

UFM1 isoform 2 (UniProt P61960)
inactive: [1] -0.032 | [2] -0.009 | [3] 0.066 | [4] -0.069 | [5] -0.048

UTP15 (UniProt Q8TED0)
inactive: [1] 0.095 | [2] -0.236 | [3] -0.268 | [4] 0.118 | [5] 0

UBE4A isoform 2 (UniProt Q14139)
inactive: [1] -0.051 | [2] -0.067 | [3] 0.013 | [4] 0.013 | [5] 0.081

Reprinted from the results shown (2 entries):
USP47 (UniProt Q96K76)
inactive: [1] -0.021 | [2] -0.04 | [3] 0.1 | [4] 0.046 | [5] -0.016

UTP3 (UniProt Q9NQZ2)
inactive: [1] 0.049 | [2] -0.312 | [3] -0.041 | [4] 0.042 | [5] -0.007

The list continues:

VBP1 (UniProt P61758)
inactive: [1] 0.019 | [2] 0.003 | [3] -0.02 | [4] 0.002 | [5] 0.028

USO1 isoform 2 (UniProt O60763)
inactive: [1] -0.007 | [2] 0.012 | [3] 0.028 | [4] 0.012 | [5] 0.048

UCK1 (UniProt Q9HA47)
inactive: [1] -0.035 | [2] 0.013 | [3] 0.015 | [4] 0.001 | [5] -0.002

UBE3D (UniProt Q7Z6J8)
inactive: [1] 0.034 | [2] 0.057 | [3] 0.001 | [4] -0.051 | [5] 0.009
